PubChem BioAssay AID743454 | Peter MacCallum Cancer Centre | 2014

Assay: 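Search for knock-downs that restore vorinostat killing in resistant colon cancer cells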 (primary screen)
System: human HCT116-VR colon cancer cells, selected for vorinostat resistance
Reagents: siRNA pool against human genes, 40 nM siRNA pool
Duration: vorinostat for 24 h, read-out about 72 h after transfection
Conditions: vorinostat at 2.5 µM final
Detection: 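Two measures, CellTiter-Fluor viability and luminescent caspase 3/7 activity, each as fold change against same-plate mock wells, mean of duplicates, then screen-wide robust z-score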
Direction: viability robust z-score: higher = more viable cells than screen typical; caspase robust z-score: higher = more caspase 3/7 activity than screen typical
Call rule: 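a knock-down is a hit when classed RV1 or RV2 for lowered viability, or CA1 or CA2 for caspase activation; those lethal without drug were dropped; hits were retested singly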
Here is one part, drawn at random, of about 18,000 deposited reagents. Over the whole deposit, 450 (2.5%) are marked active. 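Single biological run; no consistent viability z cut-off exists, so the class columns, not z-scores, define the calls.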

PDE4C (GeneID 5143) — viability hit class = no change; caspase hit class = no change; viability robust z-score = -0.5; caspase robust z-score = 0.44; activity call = inactive
KPNA6 (GeneID 23633) — viability hit class = no change; caspase hit class = no change; viability robust z-score = -0.61; caspase robust z-score = -0.21; activity call = inactive
HAUS2 (GeneID 55142) — viability hit class = no change; caspase hit class = no change; viability robust z-score = -0.43; caspase robust z-score = 1.79; activity call = inactive
NR2C1 (GeneID 7181) — viability hit class = no change; caspase hit class = no change; viability robust z-score = 1.14; caspase robust z-score = 0.22; activity call = inactive
TMEM74 (GeneID 157753) — viability hit class = no change; caspase hit class = no change; viability robust z-score = -0.29; caspase robust z-score = -0.48; activity call = inactive
KASH5 (GeneID 147872) — viability hit class = no change; caspase hit class = no change; viability robust z-score = 0.22; caspase robust z-score = 1.29; activity call = inactive
DUSP19 (GeneID 142679) — viability hit class = no change; caspase hit class = no change; viability robust z-score = 1.17; caspase robust z-score = -0.57; activity call = inactive
FCGR2A (GeneID 2212) — viability hit class = no change; caspase hit class = no change; viability robust z-score = 0.63; caspase robust z-score = 2.11; activity call = inactive
ZNF624 (GeneID 57547) — viability hit class = no change; caspase hit class = no change; viability robust z-score = -0.04; caspase robust z-score = 0.4; activity call = inactive
USP54 (GeneID 159195) — viability hit class = no change; caspase hit class = no change; viability robust z-score = 0.2; caspase robust z-score = 0.13; activity call = inactive
CCHCR1 (GeneID 54535) — viability hit class = no change; caspase hit class = no change; viability robust z-score = -0.09; caspase robust z-score = 0.57; activity call = inactive
MYPN (GeneID 84665) — viability hit class = no change; caspase hit class = no change; viability robust z-score = -0.68; caspase robust z-score = -0.8; activity call = inactive
GJC1 (GeneID 10052) — viability hit class = no change; caspase hit class = no change; viability robust z-score = 2.29; caspase robust z-score = 0.64; activity call = inactive
MTMR8 (GeneID 55613) — viability hit class = no change; caspase hit class = no change; viability robust z-score = -0.21; caspase robust z-score = 1.53; activity call = inactive

Records listed so far whose gene name begins with M or m:
MYPN (GeneID 84665) — viability hit class = no change; caspase hit class = no change; viability robust z-score = -0.68; caspase robust z-score = -0.8; activity call = inactive
MTMR8 (GeneID 55613) — viability hit class = no change; caspase hit class = no change; viability robust z-score = -0.21; caspase robust z-score = 1.53; activity call = inactive
